No constants are given. Whether binding was seen depends on the method and setting. Binding seen in cells or lysates may run through a third protein. Some results given as binding are weak or reduced against the parent protein; the word gives no strength.
Molecular target: native ApoAII (human) (UniProt P02652)
Experiment: co-elution from the anti-PSP antibody affinity column, Western blot

The chains behind the UniProt entries cited, without tags or fusion partners. Where a name states a change or a piece, a line headed by the entry shows the natural chain unless it says otherwise. A line that says so, or that is headed by a name, gives the form on record, which may keep a tag or linker. Residues count along the entry.
native ApoAII (P02652, residues 24-100): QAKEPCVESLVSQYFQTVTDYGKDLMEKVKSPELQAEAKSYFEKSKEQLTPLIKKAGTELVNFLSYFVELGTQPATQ
PSP form of ApoAII (P02652, form named): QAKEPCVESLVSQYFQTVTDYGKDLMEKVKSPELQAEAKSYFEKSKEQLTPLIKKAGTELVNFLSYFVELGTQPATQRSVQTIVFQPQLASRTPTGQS

binding: binds
Substance: PSP form of ApoAII (from UniProt P02652 24-100)
